The test system of the test is BDF1 mice, Adenocarcinoma 755 s.c., tumor weight T/C. Description: NCI In Vivo Anticancer Drug Screen. Data for tumor model Adenocarcinoma 755 (subcutaneous) in B6D2F1 (BDF1) mice. Conditions: T/C endpoint: mean tumor weight, higher T/C = larger tumour; for T/C: evaluated on day 12. The procedure:
The antitumor activity of compounds was measured in mice bearing transplantable tumors. Survival or tumor size were measured and the results are expressed as the measurement made in the treated group (T) divided by the measurement made in the vehicle treated control group (C). The tumor model used in this assay is Adenocarcinoma 755 (subcutaneous) in B6D2F1 (BDF1) mice

Where [1] appears, read: dose: 136.0 mg/kg/injection, schedule: Q01DX011 (ip), vehicle: carboxymethylcellulose (CMC).
[2] abbreviates: dose: 15.0 mg/kg/injection, schedule: Q01DX011 (ip), vehicle: methylcellulose (MC).

The list does not hold the whole screen: it is rich in T/C values a quarter to a half above the control, in often repeated tests (any T/C) and in doses without a T/C. Further doses and runs are listed elsewhere. T/C: endpoint of the treated group in % of that of the vehicle group. Schedules are NCI's codes, read here as Q, the interval in days (D) or hours (H), X, the number of doses. Some T/C values are followed by the survivors on the day toxicity was checked, most often the fifth; where none is given, no animal had died by that day. Some entries hold several experiments; their values stand side by side, smallest first. Some entries give survivors of the animals treated and no T/C: the source files T/C as zero there, which appears to mark a toxic dose or a test without result, not a measured value. Counts of survivors are from the toxicity check (mostly the fifth day) where no day follows; animals may have died later.

Consider `CCCCN(C)N=Nc1ccc(CCC(=O)NN)cc1`, for which the survivor count (dose: 62.0 mg/kg/injection, schedule: Q01DX011 (ip), vehicle: carboxymethylcellulose (CMC)) is reported as 4 of 10.

`Cc1nc(N2CC2)nc(N2CC2)c1[N+](=O)[O-]`: the survivor count (dose: 4.5 mg/kg/injection, schedule: Q01DX011 (ip), vehicle: methylcellulose (MC)) is 6 of 10.

In the case of `[N-]=[N+]=NC1(C(=O)O)CCCC1`, the T/C (dose: 120.0 mg/kg/injection, schedule: Q01DX011 (ip), vehicle: carboxymethylcellulose (CMC)) was 139 % of control [9 of 10 alive].

Consider `CS(=O)(=O)OCCC(=O)N1CN(C(=O)CCOS(C)(=O)=O)CN(C(=O)CCOS(C)(=O)=O)C1`, for which the T/C (dose: 113.0 mg/kg/injection, schedule: Q01DX011 (ip), vehicle: methylcellulose (MC)) was 133 % of control [9 of 10 alive].

As to `CC(C)(COS(C)(=O)=O)C(=O)N1CCN(C(=O)C(C)(C)COS(C)(=O)=O)CC1`, the survivor count (dose: 18.8 mg/kg/injection, schedule: Q01DX011 (ip), vehicle: carboxymethylcellulose (CMC)) is 6 of 10.

Regarding `COC1C(OC(N)=O)C(O)C(Oc2ccc3c(O)c(NC(=O)c4ccc(O)c(CC=C(C)C)c4)c(=O)oc3c2C)OC1(C)C` (stereo not drawn), where the note is “dose: 400.0 mg/kg/injection, schedule: Q01DX011 (ip), vehicle: saline”, the survivor count is given as 0 of 10.

With `O=C1Nc2cc3c(c4cccc1c24)CCCC3`, where the note is “dose: 2.5 mg/kg/injection, schedule: Q01DX011 (ip), vehicle: carboxymethylcellulose (CMC)”, the T/C is 129 % of control.

As to `[N-]=[N+]=CC(=O)NCC(=O)NN`, the T/C (dose: 125.0 mg/kg/injection, schedule: Q01DX011 (ip), vehicle: saline) is 128 % of control.

As to `CCC1/C=C/C=C/CC(C)C(O)C(C)(O)C(=O)C(C)C(O)C(C)C(=O)C(C)C(O)C(C)/C=C/C(=O)OC2C(C)C(CC1)OC1(OC(CC(C)O)C(C)CC1=O)C2C` (stereo not drawn) (tested in a mixture with another compound), the survivor count (dose: 8.0 mg/kg/injection, schedule: Q01DX011 (ip), vehicle: saline) is given as 1 of 10.

Consider `CCCCCSc1nc(N)nc2nc[nH]c12`, for which, under “dose: 200.0 mg/kg/injection, schedule: Q01DX011 (ip), vehicle: saline”, the survivor count was 4 of 10.

Consider `Nc1ncnc2c1ncn2C1CCCCC1`, for which the T/C reads like this: (dose: 17.0 mg/kg/injection, schedule: Q01DX011 (ip), vehicle: carboxymethylcellulose (CMC)) 60, 68 [9 of 10 alive], 78, 86 % of control [9 of 10 alive]; (dose: 34.0 mg/kg/injection, schedule: Q01DX011 (ip), vehicle: carboxymethylcellulose (CMC)) 79, 89, 95, 113 % of control; (dose: 68.0 mg/kg/injection, schedule: Q01DX011 (ip), vehicle: carboxymethylcellulose (CMC)) 66 [9 of 10 alive], 68, 69, 104 % of control; under setting [1], 63 [7 of 10 alive] and 81 % of control [8 of 10 alive]. Under setting [1], the survivor count was 2 of 10 and 5 of 10.

In the case of `Clc1nc(Cl)c2ncn(C3CCCO3)c2n1` (stereo not drawn), the survivor count (dose: 100.0 mg/kg/injection, schedule: Q01DX011 (ip), vehicle: methylcellulose (MC)) is 5 of 10.

On to `CC(=O)OCC(=O)[C@@]1(O)CC[C@H]2[C@@H]3CCC4=CC(=O)[C@H](C)C[C@]4(C)[C@H]3[C@@H](O)C[C@@]21C`, for which the survivor count (dose: 200.0 mg/kg/injection, schedule: Q01DX011 (sc), vehicle: steroid suspending solution) is listed as 3 of 10.

As for `O=C1C=Cc2ccc(O)cc2C1=O`, the survivor count is listed as 0 of 6 (dose: 2.0 mg/kg/injection, schedule: Q01DX011 (ip), vehicle: saline); 0 of 6 (dose: 3.0 mg/kg/injection, schedule: Q01DX011 (ip), vehicle: saline); 0 of 6 (dose: 4.5 mg/kg/injection, schedule: Q01DX011 (ip), vehicle: saline); 1 of 6 (dose: 6.7 mg/kg/injection, schedule: Q01DX011 (ip), vehicle: saline); 0 of 10 (dose: 16.0 mg/kg/injection, schedule: Q01DX011 (ip), vehicle: saline). The T/C (dose: 4.0 mg/kg/injection, schedule: Q01DX011 (ip), vehicle: saline) is 144 % of control [8 of 10 alive].

For the compound `Nc1nc(N)c(N=O)c(Nc2ccc(Cl)c(Cl)c2)n1`, the survivor count (dose: 7.0 mg/kg/injection, schedule: Q01DX011 (ip), vehicle: methylcellulose (MC)) was 6 of 10; the survivor count (dose: 9.0 mg/kg/injection, schedule: Q01DX011 (ip), vehicle: methylcellulose (MC)) is reported as 6 of 10; the survivor count (dose: 28.0 mg/kg/injection, schedule: Q01DX011 (ip), vehicle: methylcellulose (MC)) is on record as 4 of 10; the survivor count (dose: 57.0 mg/kg/injection, schedule: Q01DX011 (ip), vehicle: methylcellulose (MC)) is given as 1 of 10; the survivor count (dose: 114.0 mg/kg/injection, schedule: Q01DX011 (ip), vehicle: methylcellulose (MC)) was 1 of 10; the survivor count (dose: 456.0 mg/kg/injection, schedule: Q01DX011 (ip), vehicle: carboxymethylcellulose (CMC)) is 6 of 10. Further, the survivor count is reported as 4 of 10 (dose: 912.0 mg/kg/injection, schedule: Q01DX011 (ip), vehicle: carboxymethylcellulose (CMC)) and 5 of 10 (dose: 1824.0 mg/kg/injection, schedule: Q01DX011 (ip), vehicle: carboxymethylcellulose (CMC)).

For the compound `C(=N\OCCc1ccccc1)/c1cccnc1`, the T/C (dose: 88.0 mg/kg/injection, schedule: Q01DX011 (ip), vehicle: methylcellulose (MC)) was 148 % of control. Also, the survivor count (dose: 300.0 mg/kg/injection, schedule: Q01DX011 (ip), vehicle: methylcellulose (MC)) is 2 of 10 and 6 of 10.

Consider `CNc1nc(SCc2ccccc2)ncc1C`, for which the survivor count by setting is: under setting [2], 6 of 10; (dose: 62.0 mg/kg/injection, schedule: Q01DX011 (ip), vehicle: methylcellulose (MC)) 6 of 10.

Turning to `Cc1nc(Cl)c(C#N)c(C(F)(F)F)c1[N+](=O)[O-]`, under “dose: 60.0 mg/kg/injection, schedule: Q01DX011 (ip), vehicle: carboxymethylcellulose (CMC)”, the survivor count is reported as 0 of 10.

Regarding `C[C@]12CCC(=O)C=C1CC[C@@H]1[C@@H]2[C@@H](O)C[C@@]2(C)[C@H]1CC[C@]2(O)C(=O)CF`, the survivor count (dose: 400.0 mg/kg/injection, schedule: Q01DX011 (sc), vehicle: steroid suspending solution) is listed as 6 of 10.

Take `CCN(CC)c1ccc2cc3ccc(=[N+](CC)CC)cc-3oc2c1`: the T/C was 125 [8 of 10 alive] and 127 % of control (dose: 2.55 mg/kg/injection, schedule: Q01DX011 (ip), vehicle: carboxymethylcellulose (CMC)); 138 % of control (dose: 3.4 mg/kg/injection, schedule: Q01DX011 (ip), vehicle: carboxymethylcellulose (CMC)); 127 % of control [7 of 10 alive] (dose: 5.1 mg/kg/injection, schedule: Q01DX011 (ip), vehicle: carboxymethylcellulose (CMC)). The survivor count was 3 of 10 (dose: 5.0 mg/kg/injection, schedule: Q01DX011 (ip), vehicle: methylcellulose (MC)) and 4 of 10 (dose: 15.0 mg/kg/injection, schedule: Q01DX011 (ip), vehicle: other).

In the case of `O=[N+]([O-])c1ccc(C=Nc2ccc3c(c2)C(Br)c2ccccc2-3)cc1` (stereo not drawn), where the note is “dose: 880.0 mg/kg/injection, schedule: Q01DX011 (ip), vehicle: saline”, the survivor count was 3 of 10.

As for `Cc1cnc(SCc2ccc(Cl)cc2Cl)nc1N(C)C`, the survivor count runs as follows: under setting [2], 6 of 10; (dose: 31.0 mg/kg/injection, schedule: Q01DX011 (ip), vehicle: methylcellulose (MC)) 6 of 10; (dose: 125.0 mg/kg/injection, schedule: Q01DX011 (ip), vehicle: methylcellulose (MC)) 6 of 10; (dose: 250.0 mg/kg/injection, schedule: Q01DX011 (ip), vehicle: methylcellulose (MC)) 5 of 10.

Take `CC(=O)NC1=C(N2CC2)C(=O)C(NC(C)=O)=C(N2CC2)C1=O`: the T/C (dose: 0.01 mg/kg/injection, schedule: Q01DX011 (ip), vehicle: methylcellulose (MC)) was 128 % of control.
